Experiment: general procedure: solution-phase peptide synthesis; HATU/diisopropylethylamine; PyBOP/diisopropylethylamine
Settings: trifluoroacetate salt

| Substance | step yield (coupling step) | step yield (late stage modification step) |
| --- | --- | --- |
| Methyl 5-(((5S,8S,11S,14S)-14-amino-5,8,11-triisopropyl-15-methyl-4,7,10,13-tetraoxo-3,6,9,12-tetraazahexadecyl)carbamoyl)-2-(2-(4-fluorophenyl)butanamido)-4-methylthiophene-3-carboxylate | 10% yield | – |
| Methyl 5-((2,2-dimethyl-4,7,10,13,16-pentaoxo-3-oxa-5,8,11,14,17-pentaazanonadecan-19-yl)carbamoyl)-2-(2-(4-fluorophenyl)butanamido)-4-methylthiophene-3-carboxylate | 50% yield | – |
| Methyl 5-((14-amino-4,7,10,13-tetraoxo-3,6,9,12-tetraazatetradecyl)carbamoyl)-2-(2-(4-fluorophenyl)butanamido)-4-methylthiophene-3-carboxylate | – | 93% yield |

— patent US20250332276A1 (priority 2022, published 2025)
